## Primary screen of a compound library

A: 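Whole-parasite assay of Trypanosoma brucei over 72 hours; the read-out is not stated. Compounds at 30 µM. Higher reads as stronger inhibition (inferred: compounds with an IC50 in retests scored well above the rest). Values scatter widely below zero; nearly all retest evidence comes from the higher of the two concentrations used. About 64,000 compounds were tested under these conditions; 1.5% (about 940) showed 50% or more at least once.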
B: 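Cell assay of Leishmania donovani living inside macrophages; the read-out is not stated. Compounds at 30 µM. Direction is inferred from retests: higher values go with stronger inhibition. Of about 69,000 compounds tested this way, about 1,000 (1.5%) reached 50% or more in at least one test.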

Values are the deposited “Percent Effect”, in %. The record does not define 0% and 100%; most values in the screen are far below 50% and negative numbers occur (in some assays of this library far below -100). This is an unselected part of the compounds tested. Two or more numbers in one place are separate tests of the same structure; such repeats can differ widely. A dash means the value is not listed here; it may have been measured.

Compound,A,B
CC(=O)N1CCCc2cc(NC(=O)NCCc3cnn(C)c3)ccc21,-61.35,-8.738
COc1cc(C)ccc1OCCC(=O)N1CCC(C(N)=O)C1 (configuration not stated),-8.992,33.99
CC(C)N1CCC(NC(=O)NCc2ccccc2)CC1,-25.2,13.12
Cc1ccc(N2CCC3(CCN(Cc4csc(C)n4)C3=O)C2)nn1 (configuration not stated),-51.31,13.35
CN(Cc1ccccn1)C(=O)CNC(=O)N1CCc2ccccc2C1,-32.19,2.474
COc1cc(CNC(C)Cn2cccn2)cc2c1OCCO2.Cl (configuration not stated),-12.29,8.277
O=C(Cc1ccncc1)N(CCO)CCSc1ccc(Cl)cc1,7.377,32.79
CC(C)c1ccc(OCCNC(=O)N2CCS(=O)(=O)CC2)cc1,6.645,27.09
O=C(c1cc(=O)c(OCc2ccccc2F)co1)N1CCSCC1,-18.18,20.88 and 12.68
COc1ccc2c(c1)NC(C1CCN(C(=O)C3CC3)CC1)NS2(=O)=O (configuration not stated),3.368,19.77
C[C@@H]1CCC[C@H](C)N1CC(=O)N1CCc2[nH]c(-c3ccccc3)nc2C1,-20.83,7.395
Cn1cccc1C(=O)NCc1cnc2n1CCN(c1ccccn1)C2,-23.5,-7.304
Cc1ccc(CN2CCCC3(CCCN3S(C)(=O)=O)C2)s1.O=C(O)C(F)(F)F (configuration not stated),-42.73,29.57
O=C(O)C(F)(F)F.[H][C@@]12CCN(Cc3ccc(C)s3)C[C@]1(COC)CCO2,-14.65,24.95
O=C(O)C(F)(F)F.[H][C@@]12CCCO[C@]1([H])[C@H](N1CCCC1=O)CN(Cc1cnn(C)c1)C2,-24.54,6.117 and -16.64
O=C(Cc1ccc2c(c1)CCC2)NCCNc1ncccn1,15.45,-10.29
[H][C@@]12CCN(S(C)(=O)=O)C[C@]1(C(=O)NCC1CC1)CCO2,-34.22,15.97
Cc1cccnc1NCCNC(=O)C1CCN(Cc2ccco2)CC1,-42.68,0.1219
O=C(CN1CCN(C(=O)c2ccccc2)CC1)Nc1ccc(Br)cn1,-3.112,10.6
O=C(O)C(F)(F)F.O=C(O)C(F)(F)F.O=C1N(c2ccsc2)CCC12CCCN(Cc1ccccn1)C2 (configuration not stated),11.77,-2.94
Cc1[nH]ccc1C(=O)N1CCC(c2nnc(Cn3cccn3)n2C)CC1,19.17,3.623
O=C(O)C(F)(F)F.[H][C@@]12CCN(C3CCCCC3)C[C@]1(C(=O)N1CCOCC1)CCO2,-10.39,2.951
N#Cc1ccc(NC2CCN(CC(F)F)CC2)c(F)c1,-2.938,2.424
O=C(CCc1ccsc1)N(Cc1ccccn1)C1CC1,-1.977,8.684
Cc1cnc(-c2nc(O)c3c(n2)CN(C(=O)CC2CCCC2)CC3)cn1,-,-43.84
O=C(c1cc2c(s1)CCC2)N1CCC(c2cnccn2)CC1,-,-36.99
CC(C(=O)NCc1ccc(F)cc1)N(C)CCN1CCOCC1 (configuration not stated),-69.56,15.26
[H][C@@]12CN(Cc3csc(C)n3)C[C@]1([H])CN(C(=O)c1ccc(C)nc1)C2,-49.6,58.41
COCCOc1ccc(F)cc1NCc1nc2ccccc2n1C,-25.57,-30.48
O=S(=O)(CCNC1CCc2ncnn2C1)c1ccccc1 (configuration not stated),-2.928,1.068
OC(CN1CCC(c2ccn[nH]2)CC1)c1ccccc1F (configuration not stated),-11.19,30.71
COC(=O)c1cc2c(OC)c(OC)c(OC)cc2[nH]1,-65.22,0.846
Fc1cnc(N2CC[C@@H](N3CCOCC3)[C@@H]2Cc2ccccc2)nc1,-66.32,-7.358
CC(C)(C)NS(=O)(=O)c1ccc(NC(=O)C2CC2)cc1,-10.21,1.19
CC(=O)N1CCc2nc(C3CCN(C(=O)c4ccccc4)C3)ncc2C1 (configuration not stated),-48.54,-7.181 and -3.349
N#Cc1cccc(OCCN2CCCC2C(=O)NC2CC2)c1 (configuration not stated),-36.01,0.9975
CCS(=O)(=O)Cc1nc(-c2cnn3c(C)cc(C)nc23)no1,-37.53,-46.01
CC(C)COC(C)C(=O)NCc1ccc(OC(C)C)nc1 (configuration not stated),-39.16,22.67
Cc1nc(C)n(CC2CCCN(CCOc3ccccc3F)C2)n1 (configuration not stated),-6.044,16.36
CCc1cccc(OCC(=O)NC(C)c2nnc3n2CCC3)c1 (configuration not stated),4.752,4.711
CCC(=O)N1CCCCC1c1nc(O)c2c(n1)CN(S(C)(=O)=O)CC2 (configuration not stated),-16.66,3.883
Cc1cnn(CC2CN(Cc3nc(C4CC4)no3)CCO2)c1 (configuration not stated),-22.78,31.11
COCCN(C)C(C)c1cccc(S(N)(=O)=O)c1 (configuration not stated),-,23.22
CCCN1CCC(Nc2nc(CC)ns2)CC1,-23.45,-0.1155
Cl.c1cc(CC2CCCNC2)nc(NCCc2cnccn2)c1 (configuration not stated),-1.325,2.895
CC(C)(C)CC(=O)N1CSCC1C(=O)NCc1cccc(C#N)c1 (configuration not stated),-44.03,-12.75
O=C(Cc1ccc2c(c1)CCO2)N1CCN(c2ccccn2)CC1,-17.79,12.27
c1cc(CN2CCCC2)cc(-n2ccnc2-c2ccncc2)c1,10.29,32.71
O=C(c1ccc2c(c1)CCO2)N1CCN(c2ncccn2)CC1,-27.63,-2.231
Cc1cc(NC(=O)CN2CCN(c3nc(C)cs3)C(C)C2)on1 (configuration not stated),-,3.721
COCCn1/c(=N\C(=O)CN(C)S(C)(=O)=O)sc2cccc(F)c21,-27.73,-29.49
Cc1[nH]ncc1C(=O)N1CCCC(c2cc(C(F)(F)F)[nH]n2)C1 (configuration not stated),-20.87,-16.65
CN(C)CCCNC(=O)CNC(=O)N1CCc2c([nH]c3ccccc23)C1,-6.191,-13.78
CCNC(=O)N1CC2=CC(C)(C)COc3ccc(OC)c(c32)C1,-27.53,-10.19
Cc1cccc(C2(C(=O)NS(=O)(=O)c3cnn(C)c3)CCCC2)c1,-51.06,7.608
CCN1CCc2c(CNC(=O)c3nccn3C)cncc2C1.Cl.Cl.Cl,-36.15,44.27

For reference, 4 entries once more:

{"compound": "Cn1cccc1C(=O)NCc1cnc2n1CCN(c1ccccn1)C2", "A": -23.5, "B": -7.304}
{"compound": "CC(C)N1CCC(NC(=O)NCc2ccccc2)CC1", "A": -25.2, "B": 13.12}
{"compound": "c1cc(CN2CCCC2)cc(-n2ccnc2-c2ccncc2)c1", "A": 10.29, "B": 32.71}
{"compound": "Cc1cc(NC(=O)CN2CCN(c3nc(C)cs3)C(C)C2)on1", "stereo": "configuration not stated", "B": 3.721}

Source: ChEMBL document CHEMBL3988442, “University of Dundee, Small-Polar-MMV Screening Library” (2021).